# Measured values as given in PubChem BioAssay AID1471 (National Center for Advancing Translational Sciences (NCATS), 2008).
# Several values for one entry are separate records, joined by “and”; a condition that tells them apart may be missing. Equal values may be shown once. The campaign covered roughly 230,000 compounds. About 310 (0.13%) were called active. The inconclusive results got no clear call from the source; some entries with a clear call stand among them for comparison. The call rests on the fitted dose curve; in most records, active means well fitted activation curve with a large enough effect; inconclusive means small, poorly fitted or top-dose-only effect; inactive means no such curve, though single readings can be large or run the other way. Potencies of inconclusive entries are doubtful fits and often do not repeat. Residues, ends and D or L forms follow the SMILES beside them. *: point of attachment. OBn = c1ccc(CO*)cc1
# Test: qHTS Multiplex Assay to Identify Dual Action Probes in a Cell Model of Huntington: Cytoprotection (ATP); further: nearly all actives have a fitted effect of over 45% in size;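 on cytoprotection (ATP increase): toxic huntingtin expression switched on by the ecdysone agonist tebufenozide; % of control where 0% means no effect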
# Conditions: PC12 HTT-Q103 induced, ATP luminescence, 40 h; cytoprotection (ATP increase): at 56.4 µM (top of the series) unless noted
# How it was run: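 Huntington model: PC12 line, ecdysone-inducible HTTQ103 exon1–GFP, tebufenozide 100 nM. Test articles in a dose series. Endpoint luminescence from cellular ATP.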
# Potency means the concentration at half of the fitted maximal effect.
SMILES,cytoprotection (ATP increase),Potency
CCCS(=O)(=O)c1nnnn1-c1cccc(OC)c1,inactive: -69.8%,
O=C(O)c1ccc(COc2ccccc2[N+](=O)[O-])o1,,"inconclusive: 6310 nM [activator, single point]"
COc1ccc(-n2c(N)c(C(=O)NCC3CCCO3)c3nc4ccccc4nc32)c(OC)c1 (centres undefined),inactive: -71.6%,
COc1cc(-c2nc(CN(C)Cc3nnc(C)o3)c(C)o2)ccc1F,,"inconclusive: 501 nM [activator, partial curve, poor fit]"
COCC(C)n1c(C)cc(C(=O)CSc2nc3ccccc3c(=O)[nH]2)c1C (centres undefined),inactive: -94.7%,
Cc1ccc(S(=O)(=O)NC(=O)c2ccccc2)cc1C(C)C,,active: 2820 nM
O=C(/C=C/c1ccc(O)cc1)c1c(O)cc(O)cc1O,inactive: -11.5% [at 10 µM] and inactive: -3.7% [at 1.9 µM],
Cc1nn(-c2ccccc2)c(C)c1/C=N/n1c(-c2ccncc2)n[nH]c1=S,inactive: -50% [at 10 µM],
CCOC(=O)COc1cccc2c(=O)n(CC(=O)N3CCc4ccccc43)ccc12,inactive: -6.38%,
CCn1ncc(NC(=S)NCCc2ccccc2)c1C(N)=O,,"inconclusive: 35500 nM [activator, single point]"
CC1Cc2ccccc2N1C(=O)COC(=O)c1ccc(O)cc1 (centres undefined),inactive: 8.74% [at 10 µM],
CN(C)c1cccc(NC(=O)CCc2ccccc2)c1,inactive: -32.1%,
CCCCC(CC)CNC(=O)CC1Nc2c3ccccc3nc(=S)n2C1=O (centres undefined),,"inconclusive: 5 nM [activator, full curve, poor fit]"
CC1(C)CC(=O)C(C2=NC3(CCCCC3)Cc3ccccc32)=C(O)C1,,"inconclusive: 5620 nM [activator, single point]"
CCOC(=O)c1cc(CC)sc1NC(=O)c1ccc(N2CCOCC2)c([N+](=O)[O-])c1,,"inconclusive: 5620 nM [activator, single point]"
CCSC1=C(C#N)C2(CCCCC2)C2=C(CC(C)(C)CC2=O)N1,inactive: 15.8% [at 10 µM],
CCc1cccc(CC)c1NC(=O)NC1CCCCC1,,"inconclusive: 1580 nM [activator, partial curve]"
C[C@@H]1CN(C(=O)c2nc3ccc(Cl)cn3c2CN2CCc3sccc3C2)C[C@H](C)O1,,"inconclusive: 891 nM [activator, full curve, poor fit]"
CC[C@@H]1Cc2cc(O)ccc2C2=C1c1ccc(O)cc1C[C@H]2CC,,"inconclusive: 1000 nM [activator, partial curve]"
COc1ccc(-c2cc(-c3ccccc3)c(C#N)c(S(C)=O)n2)cc1 (centres undefined),,"inconclusive: 31600 nM [activator, single point]"
COc1ccc2cc3[n+](cc2c1OC)CCc1cc2c(cc1-3)OCO2,,"inconclusive: 251 nM [activator, full curve]"
NCC(=O)NCC(=O)OCc1ccccc1 (H-Gly-Gly-OBn),,"inconclusive: 447 nM [activator, single point]"
COc1ccc(C(=O)C2CCCN(C(=O)c3ccc4cc[nH]c4c3)C2)c(C)c1 (centres undefined),,"inconclusive: 5010 nM [activator, single point]"

# Some of the entries so far, with bars between the fields.
SMILES | cytoprotection (ATP increase) | Potency
CCCS(=O)(=O)c1nnnn1-c1cccc(OC)c1 | inactive: -69.8% | 
CC[C@@H]1Cc2cc(O)ccc2C2=C1c1ccc(O)cc1C[C@H]2CC |  | inconclusive: 1000 nM [activator, partial curve]

# Continued.

SMILES,cytoprotection (ATP increase),Potency
COC(=O)[C@@]1(Cc2ccc(OC)cc2)[C@H]2c3cc(C(=O)N4CCCC4)n(Cc4ccc(OC(F)(F)F)cc4)c3C[C@H]2CN1C(=O)c1ccccc1,,"inconclusive: 28200 nM [activator, single point]"
COc1ccc(Oc2ncc3nc(-c4cccs4)c(=O)n(C)c3n2)cc1,,"inconclusive: 794 nM [activator, single point]"
O=C1CC(Nc2ccc(N3CCOCC3)cc2)C(=O)N1c1ccccc1F (centres undefined),inactive: -22.2% [at 10 µM],
Cn1c(=O)cc(Nc2ccccc2)c2c(=O)n(-c3ccccc3)c(=O)n(-c3ccccc3)c21,inactive: -4.63% [at 10 µM],
COc1ccc(CCN2C(=O)C3C4C=CC(C4)C3C2=O)cc1OC (centres undefined),inactive: -0.17%,
Cc1cccc(-n2cc[nH]c2=S)c1C,inactive: -13.1% [at 10 µM],
O=c1c2oc3ccccc3c2ncn1Cc1cccc(Cl)c1,,"inconclusive: 708 nM [activator, full curve, poor fit]"
O=C(COC(=O)C1CCN(S(=O)(=O)c2cccs2)CC1)c1ccccc1,,"inconclusive: 398 nM [activator, single point]"
COc1cc(C)ccc1OCCOc1c(C)cc(Cl)cc1Cl,,"inconclusive: 1260 nM [activator, single point]"
O=C(c1cc(C(F)(F)F)cc(C(F)(F)F)c1)N1CCC[C@@]2(CCN(Cc3ccccc3)C2)C1,,"inconclusive: 1580 nM [activator, partial curve, poor fit]"
Cc1ccc(C(=O)NC(=S)Nc2ccc(Oc3ccc(Cl)cc3)cc2)cc1,inactive: -48.8%,
CC(C)c1ccccc1NC(=S)N1CCN(Cc2ccc3c(c2)OCO3)CC1,,"inconclusive: 35500 nM [activator, single point]"
CCCCS(=O)(=O)N1CCc2nc(COc3ccccc3)c3c(c2C1)CO[C@@H](C)C3,,"inconclusive: 1410 nM [activator, partial curve]"
CC(C)(C)NC(=O)c1cnn(-c2ccccc2)c1NC(=O)c1ccccc1,inactive: -2.84% [at 10 µM],
Cc1cccc(-n2nnnc2SC(C)C(=O)NCCC2=CCCCC2)c1 (centres undefined),,"inconclusive: 25100 nM [activator, partial curve, poor fit]"
O=C1C(O)=C(O)C(=O)C(O)=C1O,,"inconclusive: 355 nM [activator, full curve, poor fit]"
O[C@H](CCCN1CCN(c2ncc(F)cn2)CC1)c1ccc(F)cc1,,"inconclusive: 3980 nM [activator, partial curve]"
O=C(CCS(=O)(=O)c1cc(Br)cc2c1N(C(=O)C1CC1)CC2)NCc1ccco1,inactive: 10.4%,
COc1ccc(C(=O)[C@]2(C)C=C(c3ccc(OC)cc3)[C@H](C)C2)cc1,,active: 35500 nM
CCc1cc(=O)oc2cc(C)cc(OC(=O)c3ccco3)c12,inactive: -22.5% [at 0.074 µM],
CC(NCC(O)COc1ccc(S(=O)(=O)N2CCOCC2)cc1)c1ccccc1 (centres undefined),,active: 2240 nM
NC(=S)c1cc2ccc(O)cc2oc1=O,inactive: -45.2%,
Cc1ccc(/C(N)=N/OC(=O)COc2ccccc2Cl)cc1,,"inconclusive: 1120 nM [activator, partial curve, poor fit]"

SMILES,cytoprotection (ATP increase),Potency
CCCCOc1ccc(NC(=O)c2cc(F)c(F)cc2Cl)cc1,,"inconclusive: 1260 nM [activator, single point]"
COc1cc(C)c(Cc2cnc(N)nc2N)cc1OC,,"inconclusive: 15800 nM [activator, partial curve, poor fit]"
CCNc1nc(NCC)nc(N/N=C/c2ccc([N+](=O)[O-])o2)n1,inactive: -15%,
CC1(C)CC(=O)C(CCCN2C(=O)c3ccccc3C2=O)C(=O)C1,,"inconclusive: 891 nM [activator, partial curve, poor fit]"
COCCCn1c(SCC(=O)Nc2cccc(C(=O)OC)c2)nnc1-c1ccncc1,inactive: -8.91% [at 10 µM],
C=CCN1c2ccccc2[C@]23C[C@@H](C(=O)OC)N(C(=O)CC(C)C)C2=NC(C(=O)OC)=C(C(=O)OC)[C@H]13,,"inconclusive: 126 nM [activator, full curve, poor fit]"
FC(F)(F)c1cnc(C(c2ccccn2)c2ncn[nH]2)c(Cl)c1 (centres undefined),inactive: 12.7% [at 10 µM],
Cc1ccc(OCC(=O)Nc2ccc(N3CCOCC3)cc2)c([N+](=O)[O-])n1,inactive: -24.2%,
Cc1nn(-c2ccccc2)c2nc(-c3cccs3)cc(C(=O)NN)c12,inactive: -133%,
Cc1cccc2c1Sc1ccccc1CC2=O,,"inconclusive: 20000 nM [activator, single point]"
NCCCC[C@H]1CNC(=O)C(=O)N1CCc1cccc2ccccc12,,"inconclusive: 5620 nM [activator, single point]"
N#Cc1ccc(-c2csc(NC(=O)c3ccc(N4C(=O)CCC4=O)cc3)n2)cc1,,"inconclusive: 631 nM [activator, single point]"
COCCN(C(=O)CSc1nnc(C)n1Cc1ccccc1)c1c(N)n(Cc2ccccc2)c(=O)[nH]c1=O,,"inconclusive: 5620 nM [activator, single point]"
COc1ccccc1CNC(=O)C1CCN(Cc2nc(-c3ccc(Cl)cc3)oc2C)CC1,inactive: -43% [at 0.074 µM],
COC(=O)N1CCC2(CCN(C(=O)Nc3cccc(C#N)c3)CC2)CC1,,"inconclusive: 447 nM [activator, full curve, poor fit]"
Cc1oc(CC(C)C)cc1C(=O)NCCCC(=O)O,,active: 5620 nM
CCC(=O)NC(=S)Nc1ccc(NC(=O)c2ccco2)cc1,,"inconclusive: 5 nM [activator, full curve, poor fit]"
O=C(CNC(=S)N(CCCN1CCOCC1)Cc1cccs1)N1CCCCCC1,inactive: -1.81%,
Cc1ccc(N2CN(CCc3ccccc3)CNC2=S)cc1,,"inconclusive: 5620 nM [activator, single point]"
COc1ccc(CC(=O)Nc2cc(C)ccc2O)cc1OC,inactive: 21.8% [at 10 µM],
COC(=O)N/N=C/C1=CCC2CC1C2(C)C (centres undefined),,"inconclusive: 1260 nM [activator, single point]"
Cc1noc(C)c1C(=O)N1CCC2(CCCN(C(=O)NC(C)C)C2)CC1,,"inconclusive: 1260 nM [activator, partial curve]"
O=c1cnc2cnc(N3CCNCC3)nc2n1CCc1ccccc1,,"inconclusive: 3160 nM [activator, partial curve]"

# Not a retest: an excerpt of the list.
SMILES,cytoprotection (ATP increase),Potency
Cc1noc(C)c1C(=O)N1CCC2(CCCN(C(=O)NC(C)C)C2)CC1,,"inconclusive: 1260 nM [activator, partial curve]"
O=c1cnc2cnc(N3CCNCC3)nc2n1CCc1ccccc1,,"inconclusive: 3160 nM [activator, partial curve]"
